Among the data in article PMC4207488 are binding values, retold here.

For assay [1], the target named is T1, LexA-Rpb4 (S. cerevisiae) (UniProt P20433).
T1 sequence: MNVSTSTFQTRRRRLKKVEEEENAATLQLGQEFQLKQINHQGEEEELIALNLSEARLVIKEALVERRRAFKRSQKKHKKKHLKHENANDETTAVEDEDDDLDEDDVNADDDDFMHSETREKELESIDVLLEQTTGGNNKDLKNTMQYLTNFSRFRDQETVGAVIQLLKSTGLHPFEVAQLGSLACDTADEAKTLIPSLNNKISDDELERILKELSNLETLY
Kind of assay: two-hybrid; LexA fusion as bait (pLex202), B42 fusions as preys (pJG4-5), reporter strain MY290; serial dilutions spotted on medium selective for the plasmids and indicative of an interaction (-L).

Assay [2] deals with T2, Rpb4-TT (S. cerevisiae), P20433.
T2 chain: T1 sequence
Description: co-IP; Tap-tagged protein captured from 4 mg of total yeast extract on IgG sepharose in IP buffer (40 mM HEPES-KOH pH 8.0, 100 mM KCl, 150 mM potassium acetate, 1 mM EDTA, 10% glycerol), eluted with TEV protease, SDS-PAGE and western blot; extracts of wild-type or not5Δ cells, with RNaseA where indicated. As to conditions: remark: other sources report otherwise. (In general: Immunoblotting shows a protein as a band on a membrane.)

The target of a further assay is T3, Not4-TT (S. cerevisiae) (UniProt P34909).
T3 sequence: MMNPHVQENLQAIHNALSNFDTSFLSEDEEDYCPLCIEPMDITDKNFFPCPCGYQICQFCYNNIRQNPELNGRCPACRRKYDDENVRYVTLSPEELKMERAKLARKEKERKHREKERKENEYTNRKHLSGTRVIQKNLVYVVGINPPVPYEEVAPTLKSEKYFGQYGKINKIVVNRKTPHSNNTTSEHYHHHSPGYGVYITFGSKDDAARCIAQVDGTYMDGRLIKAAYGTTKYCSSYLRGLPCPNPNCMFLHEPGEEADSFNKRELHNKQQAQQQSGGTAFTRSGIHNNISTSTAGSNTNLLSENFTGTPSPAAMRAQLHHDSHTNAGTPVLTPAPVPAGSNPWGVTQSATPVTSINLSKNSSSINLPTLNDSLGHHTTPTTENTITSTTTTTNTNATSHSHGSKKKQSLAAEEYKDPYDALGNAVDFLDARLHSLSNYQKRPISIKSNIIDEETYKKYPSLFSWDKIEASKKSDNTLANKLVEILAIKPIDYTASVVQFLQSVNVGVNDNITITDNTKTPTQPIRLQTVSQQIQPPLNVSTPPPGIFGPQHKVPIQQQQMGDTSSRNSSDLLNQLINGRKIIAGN
The description is as above.

These are yes or no findings as the source states them, for the method shown. For part of these data: Binding seen in cells or lysates may run through a third protein. Some results given as binding are weak or reduced against the parent protein; the word gives no strength. For part of these data: Where a sequence is shown, tags or fusion partners need not be part of it.

B1: B42-Not5 (protein, UniProt Q12514 1-560)
chain: MSQRKLQQDIDKLLKKVKEGIEDFDDIYEKFQSTDPSNSSHREKLESDLKREIKKLQKHRDQIKTWLSKEDVKDKQSVLMTNRRLIENGMERFKSVEKLMKTKQFSKEALTNPDIIKDPKELKKRDQVLFIHDCLDELQKQLEQYEAQENEEQTERHEFHIANLENILKKLQNNEMDPEPVEEFQDDIKYYVENNDDPDFIEYDTIYEDMGCEIQPSSSNNEAPKEGNNQTSLSSIRSSKKQERSPKKKAPQRDVSISDRATTPIAPGVESASQSISSTPTPVSTDTPLHTVKDDSIKFDNSTLGTPTTHVSMKKKESENDSEQQLNFPPDRTDEIRKTIQHDVETNAAFQNPLFNDELKYWLDSKRYLMQPLQEMSPKMVSQLESSLLNCPDSLDADSPCLYTKPLSLPHPTSIFFPNEPIRFVYPYDVPLNLTNNENDTDNKFGKDSKAKSKKDDDIYSRTSLARIFMKFDLDTLFFIFYHYQGSYEQFLAARELFKNRNWLFNKVDRCWYYKEIEKLPPGMGKSEEESWRYFDYKKSWLARRCGNDFVYNEEDFEKL
For the molecule B1, the binding entry in assay [1] is given as “binds”.

B2: Ccr4, P31384 1-837 (protein)
chain: MNDPSLLGYPNVGPQQQQQQQQQQHAGLLGKGTPNALQQQLHMNQLTGIPPPGLMNNSDVHTSSNNNSRQLLDQLANGNANMLNMNMDNNNNNNNNNNNNNNNGGGSGVMMNASTAAVNSIGMVPTVGTPVNINVNASNPLLHPHLDDPSLLNNPIWKLQLHLAAVSAQSLGQPNIYARQNAMKKYLATQQAQQAQQQAQQQAQQQVPGPFGPGPQAAPPALQPTDFQQSHIAEASKSLVDCTKQALMEMADTLTDSKTAKKQQPTGDSTPSGTATNSAVSTPLTPKIELFANGKDEANQALLQHKKLSQYSIDEDDDIENRMVMPKDSKYDDQLWHALDLSNLQIFNISANIFKYDFLTRLYLNGNSLTELPAEIKNLSNLRVLDLSHNRLTSLPAELGSCFQLKYFYFFDNMVTTLPWEFGNLCNLQFLGVEGNPLEKQFLKILTEKSVTGLIFYLRDNRPEIPLPHERRFIEINTDGEPQREYDSLQQSTEHLATDLAKRTFTVLSYNTLCQHYATPKMYRYTPSWALSWDYRRNKLKEQILSYDSDLLCLQEVESKTFEEYWVPLLDKHGYTGIFHAKARAKTMHSKDSKKVDGCCIFFKRDQFKLITKDAMDFSGAWMKHKKFQRTEDYLNRAMNKDNVALFLKLQHIPSGDTIWAVTTHLHWDPKFNDVKTFQVGVLLDHLETLLKEETSHNFRQDIKKFPVLICGDFNSYINSAVYELINTGRVQIHQEGNGRDFGYMSEKNFSHNLALKSSYNCIGELPFTNFTPSFTDVIDYIWFSTHALRVRGLLGEVDPEYVSKFIGFPNDKFPSDHIPLLARFEFMKTNTGSKKV
In the case of B2, in assay [2], the binding entry is “binds”.

B3: HA-tagged Rpb4 (protein, UniProt P20433 1-221)
chain: T1 sequence
With B3, in the assay with Not4-TT (S. cerevisiae), the binding result is reported as “binds”.
